For one molecule, binding results are on record in publication PMC6433952.

This test concerns the target T1, 3X FLAG-TRIM71 (UniProt Q1PSW8).
T1 sequence: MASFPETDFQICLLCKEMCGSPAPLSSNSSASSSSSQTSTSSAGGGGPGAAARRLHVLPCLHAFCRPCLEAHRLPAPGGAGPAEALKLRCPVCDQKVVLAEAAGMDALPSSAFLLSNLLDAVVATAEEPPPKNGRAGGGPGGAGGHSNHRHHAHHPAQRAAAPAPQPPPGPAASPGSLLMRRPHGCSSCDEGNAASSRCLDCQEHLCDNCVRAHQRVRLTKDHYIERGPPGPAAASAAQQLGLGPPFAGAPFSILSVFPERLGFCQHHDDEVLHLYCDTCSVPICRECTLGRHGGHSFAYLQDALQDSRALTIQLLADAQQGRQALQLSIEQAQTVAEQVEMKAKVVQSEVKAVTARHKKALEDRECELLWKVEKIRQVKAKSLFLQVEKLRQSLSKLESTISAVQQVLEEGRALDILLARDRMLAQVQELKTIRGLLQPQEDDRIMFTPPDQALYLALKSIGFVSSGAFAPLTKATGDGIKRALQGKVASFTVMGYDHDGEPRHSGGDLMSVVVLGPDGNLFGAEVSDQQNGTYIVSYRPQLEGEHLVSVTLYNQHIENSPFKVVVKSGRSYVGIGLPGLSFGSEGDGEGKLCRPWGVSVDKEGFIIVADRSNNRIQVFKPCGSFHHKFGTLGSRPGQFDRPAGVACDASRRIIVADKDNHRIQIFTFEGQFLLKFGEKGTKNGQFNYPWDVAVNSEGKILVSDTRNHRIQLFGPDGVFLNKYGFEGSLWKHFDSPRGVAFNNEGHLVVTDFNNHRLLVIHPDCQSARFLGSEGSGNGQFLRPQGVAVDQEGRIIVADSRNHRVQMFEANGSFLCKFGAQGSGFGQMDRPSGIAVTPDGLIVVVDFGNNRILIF
Description: co-IP; HEK293 cells co-transfected with 3X FLAG-TRIM71 and 3X HA-SHCBP1, with or without Trincr1 expression vector; lysate in 50 mM Tris-HCl, 140 mM NaCl, 0.5% NP-40, 1 mM EDTA, 10% glycerol; FLAG antibody and protein G Dynabeads, 12 h at 4 °C; western blot. Background: Immunoblotting shows a protein as a band on a membrane.

These are yes or no findings as the source states them, for the method shown. In cells and extracts the contact can be indirect. Some results given as binding are weak or reduced against the parent protein; the word gives no strength. Where a sequence is shown, tags or fusion partners need not be part of it.

B1: 3X HA-SHCBP1 (protein, UniProt Q9Z179 1-668)
chain: MADDLRAGGVLEPIAMVPPRPDLAAEKEPASWKEGLFLDADPCSDQGYHANPGATVKTLIPEGKTPFPRIIQTNELLFYERFRAYQDYILADCKASEVKEFTVSFLEKVLEPSGWWAVWHTNVFEVLVEVTNVDFPSLKAVVRLAEPCIYESKLSTFTLANVKELLDLKEFHLPLQELWVVSDDSHEFHQMALAIEHVRFFYKHIWRSWDEEEEDEYDYFVRCVEPRLRLYYDILEDRVPSGLIVDYHNLLSQCEESYRKFLNLRSSLSNCNSDSEQENISMVEGLNLYSEIEQLKQKLKLIENPLLRYVFGYQKNSNIQGKGTRQNGQKVIHVVSSTMKTGLLRSLFKDRFCEESCKEETEIKFHSDLLSGINACYDGDTVIICPGHYVVHGTCSIADSIELEGYGLPDDIVIEKRGKGDTFVDCTGMDVKISGIKFIQHDSVEGILIIHHGKTTLENCVLQCETTGVTVRTSAELFMKNSDVYGAKGAGIEIYPGSKCTLTDNGIHHCKEGILIKDFLDEHYDIPKISMINNVIHNNEGYGVVLVKPTIFCDLQENTQDEINDNMVQKNKEADVTEGLDLEEMLQCVASKMEPYATADFNEQAKGNCEIINELLAISMQKGRMKKRLSELGITQADDNIMSQEMFIEIMGNQFKWNGKGSFGTFLY
With B1, the binding entry is reported as “binds”.
